Drawing on article PMC6848426 (Rice, 2019), this text covers binding for three molecules.

No constants are given. Whether binding was seen depends on the method and setting. For part of these data: In cells and extracts the contact can be indirect. Some results given as binding are weak or reduced against the parent protein; the word gives no strength. Tags and fused reporters may be left off the sequences shown.

For experiment [1], the target named is T1, BD-OsSAPK9 (rice (Oryza sativa L.)) (UniProt Q75V57).
T1 sequence: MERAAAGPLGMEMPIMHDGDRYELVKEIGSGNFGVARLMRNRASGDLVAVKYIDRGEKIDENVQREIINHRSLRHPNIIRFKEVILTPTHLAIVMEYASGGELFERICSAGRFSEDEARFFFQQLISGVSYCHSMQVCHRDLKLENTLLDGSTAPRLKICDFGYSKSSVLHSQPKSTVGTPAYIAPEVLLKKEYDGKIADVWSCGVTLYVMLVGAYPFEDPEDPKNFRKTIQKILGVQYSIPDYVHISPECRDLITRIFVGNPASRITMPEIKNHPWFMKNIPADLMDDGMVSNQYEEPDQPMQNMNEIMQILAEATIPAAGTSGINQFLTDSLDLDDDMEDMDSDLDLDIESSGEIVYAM
Nature of the experiment: two-hybrid.

The target in experiment [2] is T2, NYFP-OsSAPK9 (rice (Oryza sativa L.)) (UniProt Q75V57).
T2 sequence: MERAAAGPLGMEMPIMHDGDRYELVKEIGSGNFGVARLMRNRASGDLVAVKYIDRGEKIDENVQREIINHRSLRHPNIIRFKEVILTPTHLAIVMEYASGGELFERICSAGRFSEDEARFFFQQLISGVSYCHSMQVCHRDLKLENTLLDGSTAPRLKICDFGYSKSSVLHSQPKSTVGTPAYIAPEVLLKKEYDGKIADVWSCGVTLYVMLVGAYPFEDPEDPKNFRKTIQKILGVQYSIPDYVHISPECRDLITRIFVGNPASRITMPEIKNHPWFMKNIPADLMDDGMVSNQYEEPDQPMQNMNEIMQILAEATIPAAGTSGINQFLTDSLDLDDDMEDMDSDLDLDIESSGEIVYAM
The experiment is described as follows: split reporter; BiFC in Agrobacterium-infiltrated N. benthamiana leaves, NYFP and CCFP fusions, confocal microscopy 48-72 h after infiltration.

Experiment [3] deals with T3, GFP-OsSAPK9 (rice (Oryza sativa L.)) (UniProt Q75V57).
T3 sequence: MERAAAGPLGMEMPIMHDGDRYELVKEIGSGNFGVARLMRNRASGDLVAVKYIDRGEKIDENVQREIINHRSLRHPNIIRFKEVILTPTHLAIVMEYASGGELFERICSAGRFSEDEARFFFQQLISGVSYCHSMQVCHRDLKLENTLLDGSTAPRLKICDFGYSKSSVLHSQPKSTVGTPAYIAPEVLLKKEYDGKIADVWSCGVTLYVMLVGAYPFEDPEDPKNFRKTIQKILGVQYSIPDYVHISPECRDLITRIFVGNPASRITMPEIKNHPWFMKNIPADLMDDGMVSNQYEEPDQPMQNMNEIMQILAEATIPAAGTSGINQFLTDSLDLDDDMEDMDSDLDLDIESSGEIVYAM
The experiment is described as follows: co-IP.

B1: ΔTPR of OsSGT1 (yeast two-hybrid) (domain or fragment, UniProt Q0JL44 108-367)
chain: SRFTRLMKECDERIAEELSEVPVKKAEDGAAAPSVASFVEEKDDAANMDNTPPMVEVKPKYRHDFYNSATEVVLTIFAKGVPAENVVVDFGEQMLSVSIEVPGEEPYHFQPRLFSKIIPEKSRYQVLSTKVEIRLAKAEQITWTSLDYDKKPKAVPQKIIPPAESAQRPSYPSSKSKKDWDKLEAEVKKEEKEEKLEGDAALNKFFRDIYSDADEDMRRAMMKSFVESNGTVLSTNWKDVGSKKVEGSPPDGMELKKWEY
In the case of B1, the binding result in experiment [1] is listed as “binds”.

B2: CCFP-OsSGT1 (protein, UniProt Q0JL44 1-367)
chain: MATAAASDLESKAKAAFVDDDFELAAELYTQAIEASPATAELYADRAQAHIKLGNYTEAVADANKAIELDPSMHKAYLRKGAACIRLEEYQTAKAALELGYSFASGDSRFTRLMKECDERIAEELSEVPVKKAEDGAAAPSVASFVEEKDDAANMDNTPPMVEVKPKYRHDFYNSATEVVLTIFAKGVPAENVVVDFGEQMLSVSIEVPGEEPYHFQPRLFSKIIPEKSRYQVLSTKVEIRLAKAEQITWTSLDYDKKPKAVPQKIIPPAESAQRPSYPSSKSKKDWDKLEAEVKKEEKEEKLEGDAALNKFFRDIYSDADEDMRRAMMKSFVESNGTVLSTNWKDVGSKKVEGSPPDGMELKKWEY
For B2, in experiment [2], the binding entry was “binds”.

B3: MYC-OsSGT1 (protein, UniProt Q0JL44 1-367)
chain: MATAAASDLESKAKAAFVDDDFELAAELYTQAIEASPATAELYADRAQAHIKLGNYTEAVADANKAIELDPSMHKAYLRKGAACIRLEEYQTAKAALELGYSFASGDSRFTRLMKECDERIAEELSEVPVKKAEDGAAAPSVASFVEEKDDAANMDNTPPMVEVKPKYRHDFYNSATEVVLTIFAKGVPAENVVVDFGEQMLSVSIEVPGEEPYHFQPRLFSKIIPEKSRYQVLSTKVEIRLAKAEQITWTSLDYDKKPKAVPQKIIPPAESAQRPSYPSSKSKKDWDKLEAEVKKEEKEEKLEGDAALNKFFRDIYSDADEDMRRAMMKSFVESNGTVLSTNWKDVGSKKVEGSPPDGMELKKWEY
With B3, the binding result in experiment [3] is “binds”.
